Source: PubChem BioAssay AID1688 (National Center for Advancing Translational Sciences (NCATS), 2009)
Among all 220,000 compounds or so, about 2,400 (1.1%) were called active. The shares of active, inactive and inconclusive entries below differ from those in the screen. The call rests on the fitted dose curve; in most records, active means well fitted inhibition curve with a large enough effect; inconclusive means small, poorly fitted or top-dose-only effect, or effect the other way; inactive means no such curve, though single readings can be large or run the other way. Potencies of inconclusive entries are doubtful fits and often do not repeat.

Test: qHTS Multiplex Assay to Identify Dual Action Probes in a Cell Model of Huntington: Aggregate Formation (GFP); further: nearly all actives have a fitted effect of over 60% in size
Settings: PC12 HttQ103-GFP aggregates, Acumen cytometry, 40 h; activity change, negative = inhibition: at 46.1 µM (top of the series) unless noted
Procedure, shortened: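 PC12 cells with ecdysone-inducible HTT exon1 Q103-GFP, induced by 100 nM tebufenozide, given compounds in a concentration series. GFP aggregates (1–25 um, 6 SD above background) counted in lysates by laser-scanning cytometry, 488 nm excitation.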
On the % scale 0 is the no-effect control and ±100 the full control effect; potency means the concentration at half of the fitted maximal effect.

Compound | Potency | activity change, negative = inhibition
O=C(O)c1ccccc1-c1c2cc(Br)c(=O)c(Br)c-2oc2c(Br)c(O)c(Br)cc12 | active: 10 µM | –
[O-][n+]1ccccc1SSc1cccc[n+]1[O-] | active: 5.01 µM | –
CC(=O)OC(C(=O)NCc1ccco1)c1cccnc1 (centres undefined) | inconclusive: 0.708 µM [activator, single point] | –
COCCNC(=S)N1CCN(Cc2cccc(OC)c2)CC1 | inconclusive: 11.2 µM [activator, partial curve] | –
CN(CC(=O)NCc1ccccc1)S(=O)(=O)c1cnc[nH]1 | active: 0.631 µM | –
C/C(N)=C(/C#N)C(=O)CSc1nnnn1-c1ccc(C)cc1 | inconclusive: 15.8 µM [inhibitor, single point] | –
CCN1C(=O)NC(c2cccnc2)C(C(=O)OC)=C1C (centres undefined) | inconclusive: 1.12 µM [activator, partial curve] | –
COc1ccccc1NS(=O)(=O)c1cc(NC(=O)c2cccs2)ccc1N1CCCCC1 | inconclusive: 5.01 µM [activator, full curve] | –
CCCC(=O)N1CCc2cc(-c3nc(N)sc3C)ccc21 | inconclusive: 35.5 µM [inhibitor, single point] | –
COc1cccc(CNCC(O)(c2ccc(Cl)cc2)c2ccc(Cl)cc2)c1 | inconclusive: 15.8 µM [inhibitor, single point] | –
Cc1oc(-c2ccccc2)nc1Cn1cccc1C1=NC(c2ccccc2)CO1 (centres undefined) | inconclusive: 35.5 µM [inhibitor, single point] | –
COc1ccc(C(=O)/C=C/c2ccc(OC)c(COc3ccccc3F)c2)cc1 | – | inactive: 8.45%
CCOC(=O)c1c(C)oc2c1c1c(c3ccccc32)OCN(Cc2cccnc2)C1 | – | inactive: 12%
CCOc1ccc(NC(=S)N(CCCN2CCCC2)Cc2cccn2Cc2ccc(Cl)cc2)cc1 | inconclusive: 35.5 µM [inhibitor, single point] | –
O=C(c1ccccc1)c1cc(Cl)ccc1N1C(=O)C=CC1=O | inconclusive: 35.5 µM [inhibitor, single point] | –
COc1cc(C)c(S(=O)(=O)Nc2ccccc2F)cc1C | – | inactive: 2.8%
Cc1ccc(C)c(S(=O)(=O)C(C#N)c2nc3ccccc3nc2N2CC(C)OC(C)C2)c1 (centres undefined) | inconclusive: 17.8 µM [inhibitor, single point] | –
O=[N+]([O-])c1ccc2c(c1)C(N1CCOCC1)/C(=C/COc1ccc(Cl)cc1Cl)O2 (centres undefined) | inconclusive: 17.8 µM [inhibitor, partial curve] | –
COC(=O)c1[nH]c2cc(OC)ccc2c1NC(=O)CCN1CCN(Cc2ccc3c(c2)OCO3)CC1 | inconclusive: 4.47 µM [inhibitor, partial curve, poor fit] | –

Full records as entered above. Order of values: Potency	activity change, negative = inhibition
COCCNC(=S)N1CCN(Cc2cccc(OC)c2)CC1 reads inconclusive: 11.2 µM [activator, partial curve]	–
COc1cccc(CNCC(O)(c2ccc(Cl)cc2)c2ccc(Cl)cc2)c1 reads inconclusive: 15.8 µM [inhibitor, single point]	–
